The other results are listed elsewhere or left out. The data scatter; read single values as rough.
Key:
[1] = compound: ClCC(=O)N[C@@H]1CCCc2ccccc12; assay: log2 mean competition ratio of IA-DTB cysteine labelling (DMSO/compound) (log2 ratio); higher = stronger cysteine engagement by compound; settings: treatment time: 4 h, cell line lysate: HEK293T
Method: (§1)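 IA-DTB competitive cysteine chemoproteomics in HEK293T RIPA lysate. Lysates were treated with compound 29 or 30 at 50 or 200 µM for 4 h, then IA-DTB (500 µM, 1 h), trypsin-digested, NeutrAvidin-enriched and analysed by diaPASEF. Competition ratio = intensity DMSO / intensity compound (n=4 treated, n=64 DMSO); binding: mean log2 CR ≥ 1 and p ≤ 0.05 plus QC filters. Target is the cysteine site.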

By UniProt entry, the sequences of proteins in these tests, tags left out. Where a name states a change or a piece, a line headed by the entry shows the natural chain unless it says otherwise. Residues count along the entry.
UniProt Q12802: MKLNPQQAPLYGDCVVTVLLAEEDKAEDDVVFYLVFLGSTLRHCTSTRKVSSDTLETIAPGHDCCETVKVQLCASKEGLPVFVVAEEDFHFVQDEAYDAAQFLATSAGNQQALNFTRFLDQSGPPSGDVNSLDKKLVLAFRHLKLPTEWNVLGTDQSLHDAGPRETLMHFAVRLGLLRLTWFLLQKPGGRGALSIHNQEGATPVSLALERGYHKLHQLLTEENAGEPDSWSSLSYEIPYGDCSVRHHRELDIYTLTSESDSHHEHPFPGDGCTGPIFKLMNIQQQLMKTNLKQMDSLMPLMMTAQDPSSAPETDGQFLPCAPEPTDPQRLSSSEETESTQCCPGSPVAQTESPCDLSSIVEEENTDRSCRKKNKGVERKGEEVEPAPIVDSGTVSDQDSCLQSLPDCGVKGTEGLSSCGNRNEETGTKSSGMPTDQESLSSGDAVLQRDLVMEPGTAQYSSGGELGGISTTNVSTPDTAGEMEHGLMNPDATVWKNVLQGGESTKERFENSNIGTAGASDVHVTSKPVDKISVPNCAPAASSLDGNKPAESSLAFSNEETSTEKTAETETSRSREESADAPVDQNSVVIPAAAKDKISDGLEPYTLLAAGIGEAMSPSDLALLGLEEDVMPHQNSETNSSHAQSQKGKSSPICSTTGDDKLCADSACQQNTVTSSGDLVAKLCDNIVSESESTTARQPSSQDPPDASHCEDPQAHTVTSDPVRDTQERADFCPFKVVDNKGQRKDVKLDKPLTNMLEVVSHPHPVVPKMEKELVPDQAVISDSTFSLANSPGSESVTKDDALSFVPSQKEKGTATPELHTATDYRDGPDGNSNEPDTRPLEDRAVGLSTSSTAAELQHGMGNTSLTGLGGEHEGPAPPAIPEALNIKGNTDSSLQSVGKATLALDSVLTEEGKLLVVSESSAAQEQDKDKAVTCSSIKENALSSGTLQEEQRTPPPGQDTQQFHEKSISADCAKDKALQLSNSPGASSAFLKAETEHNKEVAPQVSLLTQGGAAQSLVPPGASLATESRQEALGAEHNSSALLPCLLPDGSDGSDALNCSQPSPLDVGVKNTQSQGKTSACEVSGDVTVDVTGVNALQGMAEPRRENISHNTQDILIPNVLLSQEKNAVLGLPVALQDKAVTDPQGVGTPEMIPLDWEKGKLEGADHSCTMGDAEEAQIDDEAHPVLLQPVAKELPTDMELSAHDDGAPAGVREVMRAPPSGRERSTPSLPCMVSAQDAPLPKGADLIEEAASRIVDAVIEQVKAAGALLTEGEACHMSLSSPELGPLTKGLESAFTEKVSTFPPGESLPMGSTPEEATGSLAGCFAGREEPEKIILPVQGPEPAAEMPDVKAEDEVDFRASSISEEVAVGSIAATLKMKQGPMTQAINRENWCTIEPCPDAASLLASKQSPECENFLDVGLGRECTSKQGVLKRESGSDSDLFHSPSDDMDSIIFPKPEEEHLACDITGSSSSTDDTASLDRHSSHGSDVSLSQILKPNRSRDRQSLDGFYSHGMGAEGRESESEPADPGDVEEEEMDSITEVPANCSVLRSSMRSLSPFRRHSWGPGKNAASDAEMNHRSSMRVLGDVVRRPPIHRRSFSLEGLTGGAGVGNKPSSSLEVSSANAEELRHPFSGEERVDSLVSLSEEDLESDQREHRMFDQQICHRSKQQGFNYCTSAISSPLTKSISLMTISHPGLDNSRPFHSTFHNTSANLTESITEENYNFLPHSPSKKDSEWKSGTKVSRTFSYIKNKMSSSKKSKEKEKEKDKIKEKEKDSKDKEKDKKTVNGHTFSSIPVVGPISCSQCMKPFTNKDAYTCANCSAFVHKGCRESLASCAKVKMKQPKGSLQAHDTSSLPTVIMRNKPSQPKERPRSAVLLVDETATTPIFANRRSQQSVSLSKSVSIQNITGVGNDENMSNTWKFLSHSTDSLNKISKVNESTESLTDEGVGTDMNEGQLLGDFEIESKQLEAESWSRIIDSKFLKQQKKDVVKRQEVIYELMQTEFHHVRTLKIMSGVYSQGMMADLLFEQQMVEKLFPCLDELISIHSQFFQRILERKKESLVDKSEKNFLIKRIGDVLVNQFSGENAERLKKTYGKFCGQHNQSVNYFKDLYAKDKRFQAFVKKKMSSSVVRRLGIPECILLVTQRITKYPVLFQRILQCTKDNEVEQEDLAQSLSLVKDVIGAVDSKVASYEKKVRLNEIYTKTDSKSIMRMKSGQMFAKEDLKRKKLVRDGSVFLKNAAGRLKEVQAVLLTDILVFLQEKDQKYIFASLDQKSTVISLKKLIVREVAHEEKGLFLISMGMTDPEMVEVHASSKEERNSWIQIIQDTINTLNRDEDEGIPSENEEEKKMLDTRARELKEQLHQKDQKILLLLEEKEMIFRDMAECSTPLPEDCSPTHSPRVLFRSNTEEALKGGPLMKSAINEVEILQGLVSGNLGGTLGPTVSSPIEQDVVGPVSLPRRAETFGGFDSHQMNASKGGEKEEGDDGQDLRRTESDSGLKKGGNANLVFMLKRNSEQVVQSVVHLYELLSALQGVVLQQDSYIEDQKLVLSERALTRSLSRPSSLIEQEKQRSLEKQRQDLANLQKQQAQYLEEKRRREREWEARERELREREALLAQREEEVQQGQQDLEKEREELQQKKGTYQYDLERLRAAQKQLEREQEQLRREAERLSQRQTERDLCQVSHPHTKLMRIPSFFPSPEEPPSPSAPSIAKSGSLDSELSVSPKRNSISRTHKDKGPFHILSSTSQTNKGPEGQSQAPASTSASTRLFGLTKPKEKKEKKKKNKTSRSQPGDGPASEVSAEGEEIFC
UniProt Q53H12: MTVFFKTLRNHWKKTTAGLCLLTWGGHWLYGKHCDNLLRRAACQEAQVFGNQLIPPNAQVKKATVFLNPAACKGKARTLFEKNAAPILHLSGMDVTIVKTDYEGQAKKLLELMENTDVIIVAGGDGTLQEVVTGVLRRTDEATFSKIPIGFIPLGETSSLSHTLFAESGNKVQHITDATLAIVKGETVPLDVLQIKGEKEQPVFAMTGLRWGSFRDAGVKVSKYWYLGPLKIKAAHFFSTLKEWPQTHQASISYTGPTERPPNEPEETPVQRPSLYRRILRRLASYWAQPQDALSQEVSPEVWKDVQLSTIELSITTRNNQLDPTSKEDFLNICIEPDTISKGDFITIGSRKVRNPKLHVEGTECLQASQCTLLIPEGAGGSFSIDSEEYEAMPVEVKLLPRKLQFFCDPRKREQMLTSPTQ
UniProt P51825: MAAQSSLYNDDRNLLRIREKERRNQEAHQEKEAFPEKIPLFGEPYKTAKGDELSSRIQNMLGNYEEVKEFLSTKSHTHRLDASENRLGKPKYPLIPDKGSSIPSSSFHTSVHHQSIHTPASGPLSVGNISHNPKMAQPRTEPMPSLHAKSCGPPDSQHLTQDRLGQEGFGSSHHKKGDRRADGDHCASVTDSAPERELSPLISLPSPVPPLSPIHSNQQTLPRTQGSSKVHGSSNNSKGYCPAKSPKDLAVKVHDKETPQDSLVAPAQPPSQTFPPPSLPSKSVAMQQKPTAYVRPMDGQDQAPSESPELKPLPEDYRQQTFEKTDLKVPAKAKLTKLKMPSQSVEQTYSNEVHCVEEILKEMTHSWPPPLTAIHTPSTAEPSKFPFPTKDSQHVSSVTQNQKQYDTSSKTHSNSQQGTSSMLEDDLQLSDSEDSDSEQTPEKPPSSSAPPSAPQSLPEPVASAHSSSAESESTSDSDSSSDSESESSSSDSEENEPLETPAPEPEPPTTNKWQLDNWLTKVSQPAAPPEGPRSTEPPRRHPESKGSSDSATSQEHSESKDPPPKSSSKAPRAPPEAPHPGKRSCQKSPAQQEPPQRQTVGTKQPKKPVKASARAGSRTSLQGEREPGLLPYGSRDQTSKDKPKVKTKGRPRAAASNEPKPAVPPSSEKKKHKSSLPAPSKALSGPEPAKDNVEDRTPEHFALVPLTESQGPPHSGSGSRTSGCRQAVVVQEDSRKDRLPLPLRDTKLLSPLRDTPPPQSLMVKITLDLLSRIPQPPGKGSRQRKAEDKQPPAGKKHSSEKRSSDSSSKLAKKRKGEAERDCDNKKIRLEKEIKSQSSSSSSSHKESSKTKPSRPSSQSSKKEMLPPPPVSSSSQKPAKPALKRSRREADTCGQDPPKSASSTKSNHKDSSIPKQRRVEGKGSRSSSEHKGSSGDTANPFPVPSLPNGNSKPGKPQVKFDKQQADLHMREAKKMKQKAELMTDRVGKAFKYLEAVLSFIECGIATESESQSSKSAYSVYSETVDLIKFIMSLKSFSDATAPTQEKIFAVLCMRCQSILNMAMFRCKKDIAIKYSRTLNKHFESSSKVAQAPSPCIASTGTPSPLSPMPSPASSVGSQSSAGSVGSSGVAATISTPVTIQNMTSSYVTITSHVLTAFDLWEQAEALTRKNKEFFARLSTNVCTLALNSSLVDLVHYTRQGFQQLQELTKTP
UniProt Q9UEY8: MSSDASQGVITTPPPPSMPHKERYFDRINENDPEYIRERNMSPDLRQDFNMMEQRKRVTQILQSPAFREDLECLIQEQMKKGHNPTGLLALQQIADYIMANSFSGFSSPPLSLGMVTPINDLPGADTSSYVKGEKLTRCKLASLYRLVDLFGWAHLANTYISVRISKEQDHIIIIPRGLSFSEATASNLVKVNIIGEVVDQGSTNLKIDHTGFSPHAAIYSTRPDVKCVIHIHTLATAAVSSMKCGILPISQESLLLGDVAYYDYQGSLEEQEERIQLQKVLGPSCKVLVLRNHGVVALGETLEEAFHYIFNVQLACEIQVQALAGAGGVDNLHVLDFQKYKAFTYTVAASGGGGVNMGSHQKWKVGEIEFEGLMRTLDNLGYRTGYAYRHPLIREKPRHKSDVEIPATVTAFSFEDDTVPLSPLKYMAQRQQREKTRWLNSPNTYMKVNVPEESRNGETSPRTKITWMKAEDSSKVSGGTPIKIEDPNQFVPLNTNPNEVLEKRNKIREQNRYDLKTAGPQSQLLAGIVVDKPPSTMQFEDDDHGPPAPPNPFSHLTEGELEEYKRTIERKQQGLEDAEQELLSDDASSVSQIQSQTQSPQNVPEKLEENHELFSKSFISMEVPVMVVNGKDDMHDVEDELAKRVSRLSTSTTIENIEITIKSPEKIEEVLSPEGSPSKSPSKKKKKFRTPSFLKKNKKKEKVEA
UniProt Q99996, 3564-3587: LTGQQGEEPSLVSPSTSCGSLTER
UniProt O00170: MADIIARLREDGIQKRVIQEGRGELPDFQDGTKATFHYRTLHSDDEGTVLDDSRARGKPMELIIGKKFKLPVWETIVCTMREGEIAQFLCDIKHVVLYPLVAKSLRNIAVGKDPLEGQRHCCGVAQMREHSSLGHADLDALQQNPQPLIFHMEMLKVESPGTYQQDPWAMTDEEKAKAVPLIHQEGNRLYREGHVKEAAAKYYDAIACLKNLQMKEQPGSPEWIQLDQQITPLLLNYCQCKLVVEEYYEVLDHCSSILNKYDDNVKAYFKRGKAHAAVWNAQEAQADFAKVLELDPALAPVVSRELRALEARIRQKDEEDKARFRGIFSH
UniProt P78536, 398-432: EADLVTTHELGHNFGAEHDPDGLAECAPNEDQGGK
UniProt O96019, whole entry, looked up: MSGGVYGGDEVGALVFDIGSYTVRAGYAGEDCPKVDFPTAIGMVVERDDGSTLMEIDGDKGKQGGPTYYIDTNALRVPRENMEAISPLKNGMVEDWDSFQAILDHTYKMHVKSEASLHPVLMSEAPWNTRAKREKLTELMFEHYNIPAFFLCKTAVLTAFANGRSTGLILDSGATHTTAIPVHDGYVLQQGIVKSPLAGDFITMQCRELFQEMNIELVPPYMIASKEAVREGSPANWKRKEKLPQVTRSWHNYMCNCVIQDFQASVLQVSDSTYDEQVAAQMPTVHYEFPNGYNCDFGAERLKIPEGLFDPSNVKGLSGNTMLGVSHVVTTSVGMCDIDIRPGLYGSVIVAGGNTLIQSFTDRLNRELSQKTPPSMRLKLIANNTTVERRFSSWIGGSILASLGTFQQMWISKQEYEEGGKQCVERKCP
UniProt Q9BUB4: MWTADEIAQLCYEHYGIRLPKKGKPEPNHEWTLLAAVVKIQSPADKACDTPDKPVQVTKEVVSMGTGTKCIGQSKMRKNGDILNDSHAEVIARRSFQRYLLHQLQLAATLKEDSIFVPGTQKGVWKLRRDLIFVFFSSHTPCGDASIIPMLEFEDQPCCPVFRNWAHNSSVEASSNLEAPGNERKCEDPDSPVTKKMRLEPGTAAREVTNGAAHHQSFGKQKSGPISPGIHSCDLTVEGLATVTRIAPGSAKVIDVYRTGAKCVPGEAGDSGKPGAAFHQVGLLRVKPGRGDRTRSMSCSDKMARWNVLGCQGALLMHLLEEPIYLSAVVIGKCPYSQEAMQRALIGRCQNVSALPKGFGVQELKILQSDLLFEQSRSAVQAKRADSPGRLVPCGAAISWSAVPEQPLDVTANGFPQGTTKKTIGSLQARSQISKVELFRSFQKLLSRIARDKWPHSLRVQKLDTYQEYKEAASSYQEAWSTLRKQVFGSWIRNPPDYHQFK
UniProt P55265, 386-408: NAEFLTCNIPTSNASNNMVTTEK

[2] = compound: ClCC(=O)N[C@H]1CCCc2ccccc12; assay: as above; settings: treatment time: 4 h, cell line lysate: HEK293T
Method: as §1

Target	log2 mean competition ratio ([1]; 50 µM)	log2 mean competition ratio ([1]; 200 µM)	log2 mean competition ratio ([2]; 50 µM)	log2 mean competition ratio ([2]; 200 µM)
ACD C399 (UniProt Q96AP0)	-0.0993	0.331	-0.278	0.277
ANKLE2 C203 (UniProt Q86XL3)	0.0496	0.54	-0.0654	0.46
AKAP13 C972 (UniProt Q12802)	0.00425	-0.0632	0.23	0.194
AGK C334 (UniProt Q53H12)	-0.359	0.0847	-0.39	0.202
AFF1 C892 (UniProt P51825)	-0.355	-0.417	-0.423	0.057
ADD3 C286 (UniProt Q9UEY8)	-0.131	0.204	-0.29	-0.0278
ANAPC1 C437 (UniProt Q9H1A4)	0.0894	-0.147	-0.174	-0.345
ALDH6A1 C368 (UniProt Q02252)	0.00493	-0.0182	-0.343	0.102
ADAMTS1 C333	-0.0939	0.245	0.0414	0.111
ALKBH2 C192 (UniProt Q6NS38)	0.384	0.303	0.761	0.27
AKAP9 C3581 (UniProt Q99996)	-0.338	-0.328	-0.0739	-0.0488
AIP C254 (UniProt O00170)	-0.154	-0.101	-0.146	-0.634
ALG2 C89 (UniProt Q9H553)	0.156	0.0336	-0.103	-0.0272
ALPK1 C512 (UniProt Q96QP1)	0.00275	-0.14	0.118	-0.299
ALG3 C21 (UniProt Q92685)	-0.0526	0.11	-0.123	0.105
ADAM17 C423 (UniProt P78536)	-0.49	-0.116	-0.349	-0.26
ALMS1 C2395 (UniProt Q8TCU4)	0.105	0.157	0.00795	-0.0891
ACLY C229 (UniProt P53396)	-0.28	-0.0432	-0.0414	0.141
ALS2 C1376 (UniProt Q96Q42)	-0.216	-0.162	-0.368	-0.148
ACTL6A C32 (UniProt O96019)	0.0541	-0.213	-0.352	-0.308
ADAT1 C186 (UniProt Q9BUB4)	-0.373	0.0481	-0.205	0.203
ADAR C392 (UniProt P55265)	-0.161	-0.226	0.46	-0.17
ANKHD1 C1716	-0.149	-0.0778	-0.355	-0.278
AGPS C413 (UniProt O00116)	-0.0826	-0.112	0.205	-0.0203

Just log2 mean competition ratio ([1]; 200 µM), for some of the entries so far:
Target	log2 mean competition ratio ([1]; 200 µM)
AGK C334 (UniProt Q53H12)	0.0847
AFF1 C892 (UniProt P51825)	-0.417

Source: the supplement of paper PMC11732987, “Enantioselective OTUD7B fragment discovery through chemoproteomics screening and high-throughput optimisation” (Communications Chemistry, 2025)
